From PMC11651612 come the findings set out here.

The chains are these.
B1: Sorting nexin-4 (protein, UniProt J9VYM9 1-493)
chain: MDQDGFHSIAWDDAPSSNPPLSGPSPSQSPFEEGFESISPSSAQLPISEQYEGYDNPKAGGAGEVAVALDRRERLGGHEVDGSIWNGKWMDVQVREPAKEHEGSKDMYVSYAVKTETSLPTFRKPLTVVRRRFQDFVFLREHLVKNFPACVVPPIPDKHRLEYIKGDRFSPEFVERRRLDLQRFADRIARHPTLQRSQLVNDFLQSTEWSVAKHHHISHPPPESHTSLIDSLSDTFINAFSRVRKPDARFVEMTEELERFEEGLTGVERVVGRGKSRVDDLAADYQDMAAAYQGLGYLESGITEPLNRFAEKMLDFSTLLKHMNNTTIEPFLSSSHSLLSYSATHRNVIKLRDQKQLDFEELSAYLSAIVSERDRLAALSSGHTAAPVGLGTYLRDQVDKLRGTDDIHTRRERMRKMDGKIRELQDAVTLAHETSNAFSEEVIKEHAYFELEKKQEMKDALQAYADGQVEMLQQAMDDWDRIIPLLQRIRVDV
B2: Mucin (protein, UniProt J9VZG4 1-440)
chain: MAANHGVFFHPAQPLSSPTTPLFTPSRKRRAASPPLDSDPLSPWQQSGSQTSFTETPHREKRRRPNLANGFSSLSISPTATQSTPVPDQPRADDDDEGIGPSVYPRNDDVKVEVLPDNTNRLSTHQHPSHRPHTRQWDPYHARPPSSSSSASPTTSTDETYDSDATFTRNLPHIKRYDGIAQQADEIVQPDGSSMFTGPDLGVEDVTGIPSPLRTRRPREEDIEGMEHAGKKRRGNEMEMDIDMSTMDENTEDASVEEKDKLRGRKTVWYEPEKDRIVITSLSDSDSRSSRSPSPETEGRYLSQPGEQGFTISPSLLTHLMNVHRSGDLKGPLQDLLKNNQKSLTLYRPLGIPADRWKESIVKTWEEARNYDDSARFEEIDDAEDFGNNVPSTGNGSEVMDIEGTVPAWQGGAWNTGEAGMGEGGAVSGDGDVDMAMDVE
B3: Tetraspanin Tsp2 (protein, UniProt J9VTI8 1-533)
chain: MPSDNPRRSRLANLASKIAPHSDPQRRSSRSGSLLSPLDPNSSQSGSKENYYGRPSSPTYSDQLSSNNHGQPQEVSYRIDDDLVPPVAPFVPHADSALSSRRSSISFLADKDSFKNRASSLSLNYVPAKFTRLHAPGDYAHRRKQGGGRDAFASNAQRMGQVGTVDDDEGVIFQVSGSGLEKKKPKLRWNRFKWVLFLANSVLFVYGMATLVCAILVWLNIFYQSDVIRVGNRTELIISTVAASMILFTSLLGFAGIFLNNRTFLAVFTLLLWIDFGLLIAPGYITYKQKTFNLEGKINSQWSRDLGTEGRLRIQDALRCCGYYSPFVEATVSPLCYSRSNFPGCKSQYLHLERRVLGIWFTVSFAIVPAHLLIILAALLCSNHVTYRFGKGLMPERYRLDLGSMAVIMDEYAGQIAAQYGPTVAQEAMERSSINLATPTPCRSEYDVSLLSVPNSRRGSSSNLEAMRRSALPGSTRGVSLYDPSNPRASMDRRPESSFGGRSHSASGNGSYSGGHQANESVASFSNDDHRRP
B4: Myosin I binding protein (protein, UniProt J9VN96 1-1419)
chain: MSYPYLARTTLKYKSPHATDLSFAKGDTIRVTGQSPEDEDWLVGETLDGSHAGGFPKDFVEAIDEGTAEPTENESKTAGNTAQQLQPVTQDSSKESEPPNVLSETDPKAGEVRSELDTGSSEAQAPPQAPAPAPISASQSESHDDDAPRPQSMKDRLAFFTAAQNKPAPPPPVKPKPAAGGLTWSQRQKLRQEQEAKEKEGTAAASPVTSTPIAPSATLVPETKPSDNTESKEEQGAAMSAADALTSISKGGSLKERMAALQGVGAFGGAEKKPPPPPPTGKVWKRPAVQEKEPEPQGETEAEKPSSSDTGLAHEPLSSSDEPREVESISKDDDVAKEEETEEEQEKARRAAIAARMAKLGARGPMGMMPPAKPVKKPTRETTTTAEDKSSSTSAAAFPSEAGPGGDTGQIAEAPSIDSKPSATSSKPESVSSPADAPATAPPKSIPIPAMPRRTIGPRRRTHTSSANPSSDDVSTPPAETHPVPLPPAESSVSQDVAAPADAEAEPHDRLETINSEGHPVPPKQMMVYDEEAPLQKTEEQIRQEQEAEERGRGIGGLEGAEAAGIAVDETDEARGELVGRQDEPQASQDDMASVDEQPPTGGNREDVMSFAPGEGLQASESTPAHAAAEDDIPGGKVEMDTVPLHPPADEGLSSEEDDAPPPPPRRGTMTMEGMPLDELEKKHLQDAGEEPPIESPISSPETHEEEAEAEEEEEEEEEEEGAPLPPPRRSLDRPGGSYPLPPVRSSVSAHDAAPDVPPENLTSLATESRPTEARAQASRSPSPPLGATHPRDEDLEEGTSEKLDQEGSEMGSEGGDVGGEEVPRVPPPPSRIRKATSPVELREEEESPTSPVSADRETPHRPDVPVEETREPSGTRAVEETAAVPQGDEEDAARRSGIAARMAKLGGIKFGIPPPHPIKTHSVDTATADPDSVPNRSENLSPVEKEPPPAAAVVSAEPEQPERGEGEVASSEEEETPEQEAARRRATLARLRAGGALGFGMFNQPTQMEPEEVEEKEEEAAGEEGRASALEERGPPPLPLGRPGQGIPLSTNEDVGAKEEQQEQEQVEVQDDEAEDEAQVEDVAPPPPPARPVINTMYGEGDARASSQIVPPPARPAVAPPGSAAVPFSPVDPSGMSRSPTEREEGDDTFGTDAPAPAPAPPLQQRDYIVGEENEEGNPPPPPPPRAGGHRMSVHGEPERGASMSEAAPASQLRMSPEPFSAGGFVAAPSSQTMNPKEQSRDNEDVPVSLGRHGSVRQGTRPGYDQLKEASATYGQGLAKVARGIFAQGKKGFYGDGSPLGFVSVVMDNARVSRPSEDTWGQVIFEQEAGSILRRYDEPRPGDIAAFYDAKLKGKKGLHTYTQHVGSVEEPLVGVVSEFEDRKHKVRVLQVERGVPDEVSYRCEDLKSGKVVVFRAGI
B5: Uncharacterized protein (CNAG_01796) (protein, UniProt J9VUS1 1-327)
chain: MSTTKQVNQAPAETANALVPEATPSSEEAKKMFKTEEPVSEAVAPNITEPAVKEQFTVADIEAGTAQPRPELVNKVDNAEADNEGTKTEEGAKNTGEVPKPAETKDGKKEVKKSAVKEKTEKTKAEGKNFFAKFFGNKDKFPKKEKKKTPKAEKADPVIAAAPLETKGDNAAPQSVPTTSEPVVDTSAPIEAAEPAVKSPETEAPKGIDASTAVNGPAETAGAPEENKIEDKKDEAKDHAAKPNLKAHRRLSARIGDIFKPKKKEGIPTSSEEISKEEATEPHNEEAPVVASEAPKLEEPVATAPLKLEEEPKATQSSAAAPVAASA
B6: Regucalcin (protein, UniProt J9VZC5 1-314)
chain: MIKKFVVDKPLLELNGTLGEGCVWDTRIQRLYFVDIDQYKLYTYEPSSGKYGYETFDKKVTALASLESGEGLIAAVEDGFAYISFDSLPFPPTSSKQSLIPIPSGASLSSKEKRFNDGAVDPAGRFLAGTLGFEHGSKDGKMYSLQAEKDGSYSAPLILDGITCTNGMGWTEDAKTVYFTDSWIKEIAKFDYDITTGKLSNRRVFSNIDGYGEPDGMCIDSEGGIWTCRWASGKILRLTPDGEIDVEIDFPTAWHITCCIFGGENLDELYVTSAASDYIGDNLPDRKNGGDLFVVKGLGFKGIERDRFKGTIPK
B7: Copper chaperone (protein, UniProt J9VUN4 1-102)
chain: MAAPGTIITSTPGAIPTGPAYQYSVKMTCTGCSGAINRVLGKNITAPNAYHISLPKQLVLVWGPSLPPFETVTEKIAKTGKTINAKEVVEDASTLPALEAAA
B8: RRM domain-containing protein (protein, UniProt J9VPN4 1-749)
chain: MYNGQPPFPGNGLPPFPPQMAPNGAMPAGFPPFAPPFPPPFPGMRPPSGPGILSPATPGMMPSPAPMSGMQTPGMPFRPPPMGYAPRPAHPGLGSTPHGLPQPPHMSPSTPKPDVKTTKVFVGGIAPGITDETLESLLNACGPLHELKRVIGASGKPQAFGFAMFENPEVVLRCIRCLNGVELPDMTPEGRRDRKPTKKLIVKADEKTQAFLEEFESTLGRSDSDEEADASTRKSVQHIIALLTDPNAQHPDGPSAGNNGGQSPVQVVVPAHLQDLQEGDLPEEQRVAVLGQIAVFRENAAKREREKKLMEEEKERYKAMQSQGGGQRQAPSGYGYGNRGLAKQQQQAERQWGAQSASPAPGKGAGPSRHGPGERDPQAYDKPVSFVKAETTEGKAESGRTDEEEEEFRRRKIQMDKDIALRDAERRVEARERARLDALSREMNYRQTQKDLIARSRARQEELYARYDDDDYIERSERERDRRDRPDRERDVRELFYVDRAQWRARRQKFRQNEYQADLRDRQHEEDERQALERESEEFLKKQMAELAALEQSQRAKGLLTEDAAPIKLAINPSTLPAPPPKEEKKHVIAPRPGVQFEGEDDDEESGRKKKGTFVRLDEEEEGDGLSEAEKRARRNARLLDVKKGVPSDRRSIWKFPVEWAAVGETLVQNKIKPFVHQKIKNFLGELDEDLADFVLEHLRDRKGANDLVDGLEPILAEDAESFVLQLWRQLIFESLAFREGIDTGSMMI

No constants are given. Whether binding was seen depends on the method and setting. Binding seen in cells or lysates may run through a third protein. These calls come from enrichment with a bait or labelling near it, and not all partners need be listed.

The first assay has as its target T1, Cdc3-mCherry (C. neoformans) (UniProt J9VUF2).
T1 sequence: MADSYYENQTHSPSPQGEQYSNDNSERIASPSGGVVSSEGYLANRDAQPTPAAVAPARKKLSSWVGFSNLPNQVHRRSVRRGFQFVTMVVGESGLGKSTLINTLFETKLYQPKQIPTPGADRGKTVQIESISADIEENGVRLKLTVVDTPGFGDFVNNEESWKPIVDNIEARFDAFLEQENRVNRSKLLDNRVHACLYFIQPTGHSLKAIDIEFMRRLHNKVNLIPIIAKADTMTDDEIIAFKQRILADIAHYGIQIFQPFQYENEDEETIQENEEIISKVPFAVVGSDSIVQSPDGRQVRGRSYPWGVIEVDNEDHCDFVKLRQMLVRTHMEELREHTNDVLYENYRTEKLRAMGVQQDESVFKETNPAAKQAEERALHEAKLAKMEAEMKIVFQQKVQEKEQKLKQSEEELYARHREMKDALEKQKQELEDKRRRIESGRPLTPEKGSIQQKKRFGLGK
The experiment in a line: affinity purification with mass spectrometry.
B1: the binding result is “binds”.

Regarding B2, the binding result is given as “binds”.

As for B3, the binding result is listed as “binds”.

Turning to B4, the binding result was “binds”.

For B5, the binding result is “binds”.

For the molecule B6, the binding entry is on record as “binds”.

In another assay the target is T1, Cdc3-mCherry (C. neoformans). The experiment in a line: affinity purification with mass spectrometry; mCherry-tagged septin captured from C. neoformans lysate on RFP-Trap agarose, 4 h at 4°C, washed with TBS with 2 M urea pH 7.5; GeLC-MS/MS; untagged H99 as negative control; hits logFC >2 and adjusted p <0.001 (text-named hits <0.05); exponential cultures at ~25°C or shifted to 37°C for 2 h; N = 5.
Regarding B7, the binding entry was “binds”.

Consider B8, for which the binding entry is on record as “binds”.

For another assay, the target named is T2, Cdc10-mCherry (C. neoformans) (UniProt J9VMT9).
T2 sequence: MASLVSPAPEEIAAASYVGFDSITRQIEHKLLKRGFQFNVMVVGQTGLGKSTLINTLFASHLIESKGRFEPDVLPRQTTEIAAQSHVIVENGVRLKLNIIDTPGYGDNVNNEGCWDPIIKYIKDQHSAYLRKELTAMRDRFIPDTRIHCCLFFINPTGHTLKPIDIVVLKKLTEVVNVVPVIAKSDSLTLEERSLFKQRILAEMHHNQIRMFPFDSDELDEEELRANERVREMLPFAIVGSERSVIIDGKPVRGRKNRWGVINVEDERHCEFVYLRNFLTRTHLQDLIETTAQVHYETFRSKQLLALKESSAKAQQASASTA
The assay is described as above.
Consider B7, for which the binding entry was “binds”.

Take B8: the binding entry was “binds”.
